Source: PubChem BioAssay AID1159578 (Peter MacCallum Cancer Centre, 2015)

Assay: 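Knock-downs that alter how fast lymphatic endothelial cells migrate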 (primary screen)
Cells: human lymphatic endothelial cells
Reagent: siRNA pool against human genes, 40 nM
Timing: 48 h after transfection
Measured: 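Cells stained with dye and imaged after a scratch; covered wound area and nuclei counted, duplicates averaged, migration set against mock wells and turned into a robust z-score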
Direction: migration robust z-score: higher = faster migration into the scratch; nuclei per well: higher = more cells in the well
Active means: 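Migration changed when robust z exceeds 2 or falls below -2 and mean nuclei number is at least 3300; otherwise not called changed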
Meaning of the calls: active = migration changed; inactive = no migration change, or too few cells
This is an unselected part of about 18,000 reagents tested. Over the whole deposit, about 1,030 (5.7%) got an active call. 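Inactive calls also include pools with fewer than 3300 nuclei, whose migration was not assessed.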 Raw values vary from plate to plate and are shown uncorrected. Reagents against one gene are numbered here. Further read-outs or replicates are left out here. Reagent sequences are not shown.

no.	gene	reagent no.	migration robust z-score	migration class with cell-count check	nuclei per well, duplicate mean	Outcome
1	CYB5A	1	-1.17	migration z between -2 and 2; enough cells	4854	inactive
2	MYBPC3	1	-0.34	migration z between -2 and 2; enough cells	6070	inactive
3	FZD9	1	-0.08	migration z between -2 and 2; enough cells	4958	inactive
4	NOL4L	1	-0.01	migration z between -2 and 2; enough cells	6134	inactive
5	HLA-DOB	1	0.52	migration z between -2 and 2; enough cells	6096	inactive
6	STAU1	1	2.2	migration z above 2; enough cells	7074	active
7	VPS41	1	-0.29	migration z between -2 and 2; enough cells	5553	inactive
8	FAM194C	1	-1.18	migration z between -2 and 2; enough cells	6107	inactive
9	TRIM52	1	1.01	migration z between -2 and 2; enough cells	5403	inactive
10	GABRP	1	-1.03	migration z between -2 and 2; enough cells	5283	inactive
11	RPS6	1	0.46	migration z between -2 and 2; enough cells	3712	inactive
12	MVB12B	1	0.94	migration z between -2 and 2; enough cells	5242	inactive
13	REG4	1	-0.38	migration z between -2 and 2; enough cells	6113	inactive
14	PMP22	1	0.06	migration z between -2 and 2; enough cells	6487	inactive
15	SMARCA5	1	0.68	migration z between -2 and 2; enough cells	4887	inactive
16	CAD	1	0.08	migration z between -2 and 2; enough cells	6031	inactive
17	SAMD7	1	-1.55	migration z between -2 and 2; enough cells	4280	inactive
18	TICAM2	1	0.39	migration z between -2 and 2; enough cells	6242	inactive
19	ZNF280D	1	1.11	migration z between -2 and 2; enough cells	5631	inactive
20	TRIM41	1	0.68	migration z between -2 and 2; enough cells	4898	inactive
21	EOLA2	1	-0.3	migration z between -2 and 2; enough cells	5808	inactive

Laid out differently: results already given
gene | reagent no. | migration robust z-score | migration class with cell-count check | nuclei per well, duplicate mean | Outcome
MVB12B | 1 | 0.94 | migration z between -2 and 2; enough cells | 5242 | inactive
REG4 | 1 | -0.38 | migration z between -2 and 2; enough cells | 6113 | inactive
PMP22 | 1 | 0.06 | migration z between -2 and 2; enough cells | 6487 | inactive
SMARCA5 | 1 | 0.68 | migration z between -2 and 2; enough cells | 4887 | inactive
CAD | 1 | 0.08 | migration z between -2 and 2; enough cells | 6031 | inactive

Additional entries follow:
no.	gene	reagent no.	migration robust z-score	migration class with cell-count check	nuclei per well, duplicate mean	Outcome
22	KRTAP4-11	1	-0.46	migration z between -2 and 2; enough cells	5270	inactive
23	KCNH3	1	0.28	migration z between -2 and 2; enough cells	5418	inactive
24	CDK9	1	0.05	migration z between -2 and 2; enough cells	4203	inactive
25	SPAG7	1	-1.26	migration z between -2 and 2; enough cells	5609	inactive
26	SRSF4	1	0	migration z between -2 and 2; enough cells	5857	inactive
27	BCL9	1	1.01	migration z between -2 and 2; enough cells	6262	inactive
28	OR4K5	1	-0.74	migration z between -2 and 2; enough cells	4576	inactive
29	NUDT14	1	1.6	migration z between -2 and 2; enough cells	6002	inactive
30	TTC16	1	0.02	migration z between -2 and 2; enough cells	6260	inactive
31	PTGES3	1	1.27	migration z between -2 and 2; enough cells	3752	inactive
32	FAM193B	1	0.6	migration z between -2 and 2; enough cells	4352	inactive
33	NUP188	1	-0.39	migration z between -2 and 2; enough cells	5832	inactive
34	GSR	1	-1.38	migration z between -2 and 2; enough cells	4958	inactive
35	IPO8	1	1.17	migration z between -2 and 2; enough cells	6168	inactive
36	ZFAT	1	0.77	migration z between -2 and 2; enough cells	5639	inactive
37	PBX4	1	0.8	migration z between -2 and 2; enough cells	5339	inactive
38	CREB1	1	-0.57	under 3300 nuclei; migration not judged	3070	inactive
39	PBXIP1	1	-1.72	migration z between -2 and 2; enough cells	7061	inactive
40	RAB4A	1	0.94	migration z between -2 and 2; enough cells	6666	inactive
41	SCAP	1	-1.01	migration z between -2 and 2; enough cells	5878	inactive
42	MIR22HG	1	-0.46	migration z between -2 and 2; enough cells	6406	inactive
43	WDHD1	1	-1.5	migration z between -2 and 2; enough cells	5190	inactive
44	RMDN1	1	-3.13	migration z below -2; enough cells	4032	active
45	TAC3	1	0.28	migration z between -2 and 2; enough cells	6886	inactive
46	RCAN2	1	-1.02	migration z between -2 and 2; enough cells	5102	inactive
47	RPL39L	1	-0.41	migration z between -2 and 2; enough cells	5832	inactive
48	PRMT8	1	0.02	migration z between -2 and 2; enough cells	5906	inactive
49	COPG2	1	-0.07	migration z between -2 and 2; enough cells	5730	inactive
50	KIR3DS1	1	2.72	migration z above 2; enough cells	6250	active
51	SLC7A8	1	0.2	migration z between -2 and 2; enough cells	7009	inactive
52	NOXA1	1	-1.07	migration z between -2 and 2; enough cells	3927	inactive
53	OR1L4	1	0.68	migration z between -2 and 2; enough cells	5545	inactive
54	SACK1A	1	-3.21	migration z below -2; enough cells	4256	active
55	RGCC	1	-0.2	migration z between -2 and 2; enough cells	5274	inactive
56	KAT6A	1	0.08	migration z between -2 and 2; enough cells	7847	inactive
57	RNF213	1	0.8	migration z between -2 and 2; enough cells	6393	inactive
58	RNF213	2	0.95	migration z between -2 and 2; enough cells	6840	inactive
